Reference: patent US20220042018, “APTAMERS AND THE USE THEREOF IN THE TREATMENT OF CANCER” (FUNDACIÓn PARA LA INVESTIGACIÓn BIOMÉDICA …, published 2022)
The exact form of at least one protein or probe is not confirmed. Negatives hold for the conditions tested.

Tests used:
[1] = system: MNK1aΔ77 (MNK1a deletion mutant); assay: ELONA; details: 20 nM aptamer, binding not significant; recognised in denaturing apta-western (FIG. 6A); purified recombinant protein; protein details: GST fusion; label: biotin; folded or branched DNA; variant of apMNK2FT
[2] = system: MNK1ΔCt (MNK1 C-terminal deletion mutant); assay: ELONA; details: 20 nM aptamer, binding not significant; recognised in denaturing apta-western (FIG. 6A); purified recombinant protein; protein details: GST fusion; label: biotin; folded or branched DNA; variant of apMNK2FT

## TGGGGTGGGCGGGCGGGGGTGGGGGTGGT [apMNKQ2]
[1]
  binding result: no binding
[2]
  binding result: no binding
